Test results as given in US20210269519A1.
Results are given in words; binding and its absence hold for the method and conditions named. Binding calls can cover weak binding; strength is not graded here. Where a sequence is shown, tags or fusion partners need not be part of it. For some of these results: Binding seen in cells or lysates may run through a third protein. Values belong to the binder of their own block, whether it stands above or below them.

Experiments:
[1] = biological target: casein kinase 1 (CK1) isoform CK1γ (human protein on the ProtoArray) (human); test: ProtoArray human protein microarray probed with Flag-human LMBR1L-V5
FLAG-tagged DVL2 [2] = test: co-IP (anti-FLAG M2 agarose) from co-transfected HEK293T cells, anti-HA immunoblot
[3] = biological target: FLAG-tagged FZD6 (frizzled-6); test: as above
[4] = biological target: FLAG-tagged ring finger 43 (RNF43); test: as above
FLAG-tagged DVL2 [5] = test: co-IP (anti-FLAG M2 agarose) from co-transfected HEK293T cells, anti-HA immunoblot (FIG. 4B)
[6] = biological target: FLAG-tagged FZD6 (frizzled-6); test: as above
[7] = biological target: FLAG-tagged ring finger 43 (RNF43); test: as above

binding [1]: binds
B1: Flag-human LMBR1L-V5 (N-terminus FLAG-tagged and C-terminus V5-tagged recombinant human LMBR1L) (receptor, not shown: small tags and cut ends)
chain: MEAPDYEVLSVREQLFHERIRECIISTLLFATLYILCHIFLTRFKKPAEFTTVDDEDATVNKIALELCTFTLAIALGAVLLLPFSIISNEVLLSLPRNYYIQWLNGSLIHGLWNLVFLFSNLSLIFLMPFAYFFTESEGFAGSRKGVLGRVYETVVMLMLLTLLVLGMVWVASAIVDKNKANRESLYDFWEYYLPYLYSCISFLGVLLLLVCTPLGLARMFSVTGKLLVKPRLLEDLEEQLYCSAFEEAALTRRICNPTSCWLPLDMELLHRQVLALQTQRVLLEKRRKASAWQRNLGYPLAMLCLLVLTGLSVLIVAIHILELLIDEAAMPRGMQGTSLGQVSFSKLGSFGAVIQVVLIFYLMVSSVVGFYSSPLFRSLRPRWHDTAMTQIIGNCVCLLVLSSALPVFSRTLGLTRFDLLGDFGRFNWLGNFYIVFLYNAAFAGLTTLCLVKTFTAAVRAELIRAFGLDRLPLPVSGFPQASRKTQHQ

binding (FLAG-tagged DVL2 [2]): binds | binding [3]: binds | binding [4]: binds | binding (FLAG-tagged DVL2 [5]): binds | binding [6]: binds | binding [7]: binds
B2: HA-tagged LMBR1L (receptor, not shown: small tags and cut ends)
chain: B1 chain
